The other results are listed elsewhere or left out. Further columns of the screen follow, without active or inactive calls. The list favours compounds with an active or inconclusive main result. Words in brackets tell the shape of the fitted curve; partial curves, single points and poor fits give uncertain potencies.
Test: qHTS Assay for Lipid Storage Modulators in Drosophila S3 Cells;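 as to cell number change: cells counted by Cell Tracker Red CMTPX staining in the red channel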
Conditions: BODIPY lipid droplet fluorescence, 18-24 h; for cell number change: measured here: cell count max response, cells fed with added oleic acid
In short: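 Laser-scanning cytometry quantifies lipid droplet accumulation (500–530 nm total intensity; droplet/cell object ratio) in oleic acid-fed (400 uM added) Drosophila S3 cells treated with a concentration series. 20 uM Triacsin C defined 100% inhibition.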

[1] = measured here: cell number channel AC50, cells fed with added oleic acid
[2] = measured here: lipid fluorescence (Fed channel) AC50, cells fed with added oleic acid

Compound	cell number change	AC50 [1]	AC50 [2]
CCOC(=O)CC1ON(C)C(=O)N1c1ccc([N+](=O)[O-])cc1 (configuration not stated)	0.34%	0.146 µM [falling, full curve, poor fit]	0.411 µM [falling, partial curve, poor fit]
COc1ccc(OC)c(NC(=O)C2CCN(C(=O)C3CC(=O)N(c4ccc(C)cc4)C3)CC2)c1 (configuration not stated)	-2.56%	–	–
COc1cccc(-n2c(Cc3cc(=O)[nH]c(=O)[nH]3)nnc2SC(C)C)c1	-66.3%	18.4 µM [falling, single point]	23.1 µM [falling, single point]
COc1ccc(N(CC(=O)NC2CC3CCC2C3)S(=O)(=O)c2ccc(C)c([N+](=O)[O-])c2)cc1 (configuration not stated)	-0.833%	–	0.411 µM [falling, partial curve]
N#Cc1nc(-c2ccccc2F)oc1N1CCN(C(=O)c2ccco2)CC1	-26.7%	–	14.1 µM [falling, single point]
COCCN(CC(=O)Nc1cccc(C)c1C)C(=O)c1cc2c(s1)CCC2	3.03%	–	14.6 µM [rising, partial curve, poor fit]
Cc1ccc(Nc2nc(CSc3nnnn3-c3ccccc3)cs2)cc1	37.6%	0.517 µM [rising, partial curve, poor fit]	6.51 µM [rising, single point]
Cc1ccc(NC(=O)C(=O)NCC2CCCN2S(=O)(=O)c2cccs2)cc1C (configuration not stated)	114%	6.51 µM [rising, partial curve]	–
CCC(C)NC(=S)Nc1ccc(F)cc1 (configuration not stated)	-16.3%	–	4.11 µM [falling, full curve, poor fit]
Cc1cnc(C(=O)OCC(=O)Nc2ccc(Cl)cc2)cn1	-22.5%	–	29.1 µM [rising, single point]
O=C(NCCc1ccccc1)C1CCN(Cc2cccc3ccccc23)CC1	-12.2%	–	29.1 µM [rising, single point]
CC(=O)NC(Cc1ccccc1F)C(=O)NC1CCN(C(=O)Nc2ccc(C)cc2)CC1 (configuration not stated)	5.13%	0.731 µM [rising, partial curve, poor fit]	0.116 µM [falling, full curve]
N#C/C(=C\c1ccc(N2CCOCC2)c([N+](=O)[O-])c1)c1nc2ccccc2[nH]1	39.6%	32.6 µM [rising, single point]	0.651 µM [rising, single point]
Cn1c2c(c(=O)n(C)c1=O)CN(CC1CCCO1)CN2 (configuration not stated)	2.7%	–	0.146 µM [rising, full curve, poor fit]

Record cards, from the list above. Order of values: cell number change | AC50 [1] | AC50 [2]
Cc1ccc(Nc2nc(CSc3nnnn3-c3ccccc3)cs2)cc1 reads 37.6% | 0.517 µM [rising, partial curve, poor fit] | 6.51 µM [rising, single point]
COc1ccc(N(CC(=O)NC2CC3CCC2C3)S(=O)(=O)c2ccc(C)c([N+](=O)[O-])c2)cc1 (configuration not stated) reads -0.833% | – | 0.411 µM [falling, partial curve]

From PubChem BioAssay AID2685 (National Center for Advancing Translational Sciences (NCATS), 2010)
